Some peptides are written in HELM: one residue between dots, names in brackets for other building blocks, links after the first $.

The data set in a line: general procedure: Fmoc solid-phase peptide synthesis; 2-chlorotrityl polystyrene resin (0.7 mmol g-1); COMU/OxymaPure/DIPEA; PyOxim/DIPEA extra coupling for Arg(Alloc)2. The conditions noted are these: whole synthesis.

In turn, “PEPTIDE1{R.K.K.W.F.[Trp(redBODIPY)].G}$PEPTIDE1,PEPTIDE1,1:R1-7:R2$$$V2.0” gave an isolated mass of 4.0 mg. Also, the “final LC-MS purity” value (HPLC-MS (diode array and ESI MS detector), scale of the general procedure 20.1 mg resin) amounted to 97% purity. The substance also showed an isolated yield (overall, scale of the general procedure 20.1 mg resin) of 22% overall yield.

(Values after publication PMC8991960 (Angewandte Chemie (International Ed. in English), 2021).)
